Laboratory results from patent publication US12558351B2, “Compositions and methods for enhancing cancer immune checkpoint therapy” (DUKE UNIVERSITY, priority 2019, dated 2026).
For at least one compound, name, drawing or mass did not settle the structure.

Test system: cGAS-STING
Experiment: Ethidium bromide mtDNA depletion, cGAS-STING activation in B16F10 cells
Format: cell-based, mouse
Conditions: ATM KO B16F10 cells, 100 ng/ml EtBr for 20 days; FIGS. 62, 102
Protocol: Cells lysates were boiled in sodium dodecyl sulfate (SDS) sample loading buffer, resolved by 10% SDS-polyacrylamide gel electrophoresis (SDS-PAGE) and transferred to nitrocellulose. The membranes were blocked in 5% milk in Tris-buffered saline and Tween 20 (TBST; 10 mM Tris-HCl [pH 8.0], 150 mM NaCl, 0.1% Tween 20) for 1 hr at room temperature. After washing twice with TBST, the membranes were incubated with appropriate primary antibodies in BSA/TBST for overnight and then washed three times with TBST, probed with horseradish […] anti-immunoglobulin (1:5000 dilution) for 1 hr at room temperature. After three washes with TBST, immunoreacted products were visualized using enhanced chemiluminescence reagent and autoradiography.
A previously published protocol was used (White, M. J. et al. Cell (2014) doi:10.1016/j.cell1.2014.11.036). Vector control, ATM KO and wild-type B16 cells were cultured in Dulbecco's modified Eagle's medium (DMEM) with 10% FBS. About 100 ng/ml ethidium bromide was added to the medium for 20 days before the cells were harvested for experiments.
Total RNA was extracted from cells by use of RNeasy Mini Kit (Qiagen) according to manufacturer's instructions. […] Quantitative real-time PCR was performed using Quanti Test SYBR Green PCR Master Mix Kit (Qiagen). […]

With `CC[n+]1c(-c2ccccc2)c2cc(N)ccc2c2ccc(N)cc21` [EtBr, ethidium bromide] the “ATM deficiency-induced expression of STING and p-TBK protein levels and ISGs after mtDNA depletion” value was “significantly diminished”.
